Laboratory results: the supplement of paper PMC10849652
Some of the results follow.

Protein sequences, listed by entry. Tags and fused reporters are not part of them. Lines headed by an entry give the natural chain unless they say otherwise; changes in a name come on top.
UniProt Q9H089: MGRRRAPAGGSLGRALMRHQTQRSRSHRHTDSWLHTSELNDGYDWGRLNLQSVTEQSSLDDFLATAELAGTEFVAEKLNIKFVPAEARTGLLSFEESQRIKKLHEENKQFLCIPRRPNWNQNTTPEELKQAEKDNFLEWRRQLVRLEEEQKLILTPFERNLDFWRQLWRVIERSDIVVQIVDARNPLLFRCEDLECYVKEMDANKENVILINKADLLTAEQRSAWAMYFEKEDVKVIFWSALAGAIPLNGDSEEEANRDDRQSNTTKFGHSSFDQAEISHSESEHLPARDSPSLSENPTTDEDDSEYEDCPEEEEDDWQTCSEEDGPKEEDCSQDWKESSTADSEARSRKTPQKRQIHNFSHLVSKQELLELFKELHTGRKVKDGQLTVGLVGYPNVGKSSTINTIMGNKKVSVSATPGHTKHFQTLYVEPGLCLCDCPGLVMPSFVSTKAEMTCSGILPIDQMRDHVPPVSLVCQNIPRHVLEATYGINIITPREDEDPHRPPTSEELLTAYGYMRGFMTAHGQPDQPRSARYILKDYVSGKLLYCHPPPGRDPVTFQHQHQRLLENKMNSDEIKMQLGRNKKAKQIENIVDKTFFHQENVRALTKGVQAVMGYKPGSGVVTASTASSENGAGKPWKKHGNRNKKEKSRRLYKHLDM
UniProt Q6P9F7: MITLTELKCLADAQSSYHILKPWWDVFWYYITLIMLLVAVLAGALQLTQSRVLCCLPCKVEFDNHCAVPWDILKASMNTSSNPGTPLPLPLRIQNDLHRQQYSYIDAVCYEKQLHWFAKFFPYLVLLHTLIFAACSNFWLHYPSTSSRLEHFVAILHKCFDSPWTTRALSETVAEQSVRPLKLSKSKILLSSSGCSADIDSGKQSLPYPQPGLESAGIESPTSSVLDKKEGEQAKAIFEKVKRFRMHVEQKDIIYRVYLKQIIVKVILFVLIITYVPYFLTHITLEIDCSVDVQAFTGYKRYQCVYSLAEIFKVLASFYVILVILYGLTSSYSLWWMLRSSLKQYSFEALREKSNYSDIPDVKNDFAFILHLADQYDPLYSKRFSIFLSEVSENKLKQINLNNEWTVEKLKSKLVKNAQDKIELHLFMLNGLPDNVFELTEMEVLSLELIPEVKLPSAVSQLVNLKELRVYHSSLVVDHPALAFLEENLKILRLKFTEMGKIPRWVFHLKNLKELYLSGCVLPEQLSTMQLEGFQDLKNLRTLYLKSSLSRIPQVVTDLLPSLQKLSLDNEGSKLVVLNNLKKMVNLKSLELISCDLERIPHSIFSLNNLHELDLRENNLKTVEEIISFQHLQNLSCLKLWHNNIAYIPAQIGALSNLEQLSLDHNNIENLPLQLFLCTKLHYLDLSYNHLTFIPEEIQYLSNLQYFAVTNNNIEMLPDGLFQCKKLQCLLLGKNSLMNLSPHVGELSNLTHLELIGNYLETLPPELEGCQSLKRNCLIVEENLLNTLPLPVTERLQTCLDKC
UniProt Q86UD3: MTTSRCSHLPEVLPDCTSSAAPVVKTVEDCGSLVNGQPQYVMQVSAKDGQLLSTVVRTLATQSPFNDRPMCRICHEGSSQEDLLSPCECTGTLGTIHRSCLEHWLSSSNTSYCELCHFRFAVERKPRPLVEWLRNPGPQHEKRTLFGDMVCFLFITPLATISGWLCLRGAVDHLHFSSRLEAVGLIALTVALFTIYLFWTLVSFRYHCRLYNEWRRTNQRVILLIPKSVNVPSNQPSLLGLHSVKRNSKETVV
UniProt Q86X29: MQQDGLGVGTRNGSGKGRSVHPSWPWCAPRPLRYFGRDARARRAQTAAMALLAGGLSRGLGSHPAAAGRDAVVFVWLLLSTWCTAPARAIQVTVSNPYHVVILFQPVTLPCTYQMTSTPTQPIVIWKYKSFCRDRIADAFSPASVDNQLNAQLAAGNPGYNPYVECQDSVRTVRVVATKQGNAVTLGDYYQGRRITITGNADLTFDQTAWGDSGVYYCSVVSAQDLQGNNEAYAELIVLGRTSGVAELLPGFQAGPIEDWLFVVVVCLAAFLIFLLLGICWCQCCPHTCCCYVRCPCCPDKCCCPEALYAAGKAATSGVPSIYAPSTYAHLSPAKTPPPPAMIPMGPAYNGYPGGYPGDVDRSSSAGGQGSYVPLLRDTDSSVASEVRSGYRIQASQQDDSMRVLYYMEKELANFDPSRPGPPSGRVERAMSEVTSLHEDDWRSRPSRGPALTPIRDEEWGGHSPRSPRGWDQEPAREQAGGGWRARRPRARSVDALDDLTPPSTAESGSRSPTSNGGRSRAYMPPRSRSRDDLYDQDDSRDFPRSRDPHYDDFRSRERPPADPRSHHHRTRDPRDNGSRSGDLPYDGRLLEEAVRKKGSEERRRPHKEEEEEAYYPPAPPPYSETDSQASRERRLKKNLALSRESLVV
UniProt Q92585: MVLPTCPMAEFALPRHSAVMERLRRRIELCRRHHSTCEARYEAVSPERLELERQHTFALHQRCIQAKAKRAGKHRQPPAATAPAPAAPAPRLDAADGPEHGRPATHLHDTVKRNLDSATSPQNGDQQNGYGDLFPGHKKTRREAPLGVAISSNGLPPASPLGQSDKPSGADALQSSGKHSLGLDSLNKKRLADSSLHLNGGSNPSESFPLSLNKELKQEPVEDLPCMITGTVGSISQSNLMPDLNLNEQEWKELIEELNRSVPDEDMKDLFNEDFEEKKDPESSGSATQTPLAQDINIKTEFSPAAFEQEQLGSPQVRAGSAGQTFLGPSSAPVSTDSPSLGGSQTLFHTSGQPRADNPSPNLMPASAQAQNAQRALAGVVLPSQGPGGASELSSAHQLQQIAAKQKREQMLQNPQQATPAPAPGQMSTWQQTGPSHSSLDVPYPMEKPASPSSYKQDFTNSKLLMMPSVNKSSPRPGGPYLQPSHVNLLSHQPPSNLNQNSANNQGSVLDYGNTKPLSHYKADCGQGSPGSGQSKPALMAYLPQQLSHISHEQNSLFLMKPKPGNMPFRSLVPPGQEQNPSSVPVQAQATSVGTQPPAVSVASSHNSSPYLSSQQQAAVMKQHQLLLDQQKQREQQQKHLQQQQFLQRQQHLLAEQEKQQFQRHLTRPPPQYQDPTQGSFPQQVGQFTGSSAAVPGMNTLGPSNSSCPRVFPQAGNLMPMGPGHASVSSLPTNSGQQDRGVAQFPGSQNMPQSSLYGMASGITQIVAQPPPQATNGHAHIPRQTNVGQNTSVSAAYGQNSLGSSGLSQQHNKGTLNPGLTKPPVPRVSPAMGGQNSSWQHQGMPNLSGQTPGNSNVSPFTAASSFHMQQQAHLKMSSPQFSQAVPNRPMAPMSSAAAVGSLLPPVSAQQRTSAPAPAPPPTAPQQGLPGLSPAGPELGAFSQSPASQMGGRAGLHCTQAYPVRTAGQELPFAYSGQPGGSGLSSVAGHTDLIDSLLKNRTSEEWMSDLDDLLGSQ
UniProt Q32MZ4: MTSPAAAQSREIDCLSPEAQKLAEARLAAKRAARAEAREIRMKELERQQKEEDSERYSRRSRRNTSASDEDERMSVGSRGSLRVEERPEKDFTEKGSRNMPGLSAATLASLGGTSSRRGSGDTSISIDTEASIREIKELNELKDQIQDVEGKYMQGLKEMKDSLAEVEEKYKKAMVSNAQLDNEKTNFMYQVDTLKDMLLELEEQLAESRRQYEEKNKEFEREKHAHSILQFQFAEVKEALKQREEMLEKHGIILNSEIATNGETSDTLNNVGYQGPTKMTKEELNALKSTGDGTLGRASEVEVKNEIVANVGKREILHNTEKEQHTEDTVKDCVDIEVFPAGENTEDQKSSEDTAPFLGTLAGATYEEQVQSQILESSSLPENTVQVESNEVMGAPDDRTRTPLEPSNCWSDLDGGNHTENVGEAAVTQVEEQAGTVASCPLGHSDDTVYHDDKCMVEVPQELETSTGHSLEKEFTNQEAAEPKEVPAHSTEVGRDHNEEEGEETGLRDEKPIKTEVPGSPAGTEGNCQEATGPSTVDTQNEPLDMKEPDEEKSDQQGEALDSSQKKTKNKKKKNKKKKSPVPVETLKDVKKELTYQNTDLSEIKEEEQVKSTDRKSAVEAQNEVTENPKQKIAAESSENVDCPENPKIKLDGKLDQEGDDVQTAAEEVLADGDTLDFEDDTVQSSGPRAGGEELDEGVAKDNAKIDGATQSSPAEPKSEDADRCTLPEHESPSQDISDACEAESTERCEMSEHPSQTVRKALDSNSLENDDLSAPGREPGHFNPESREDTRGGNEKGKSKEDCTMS
UniProt Q15759, whole entry, looked up: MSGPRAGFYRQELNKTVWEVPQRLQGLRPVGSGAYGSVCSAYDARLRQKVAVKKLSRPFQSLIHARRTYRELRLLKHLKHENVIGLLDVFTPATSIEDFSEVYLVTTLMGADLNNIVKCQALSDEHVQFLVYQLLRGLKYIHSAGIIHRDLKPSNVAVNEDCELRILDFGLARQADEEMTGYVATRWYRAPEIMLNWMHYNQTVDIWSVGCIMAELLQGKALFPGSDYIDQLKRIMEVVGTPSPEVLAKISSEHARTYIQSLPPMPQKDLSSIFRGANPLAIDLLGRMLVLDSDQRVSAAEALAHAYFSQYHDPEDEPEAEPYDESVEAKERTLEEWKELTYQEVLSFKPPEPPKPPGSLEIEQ
UniProt Q13163: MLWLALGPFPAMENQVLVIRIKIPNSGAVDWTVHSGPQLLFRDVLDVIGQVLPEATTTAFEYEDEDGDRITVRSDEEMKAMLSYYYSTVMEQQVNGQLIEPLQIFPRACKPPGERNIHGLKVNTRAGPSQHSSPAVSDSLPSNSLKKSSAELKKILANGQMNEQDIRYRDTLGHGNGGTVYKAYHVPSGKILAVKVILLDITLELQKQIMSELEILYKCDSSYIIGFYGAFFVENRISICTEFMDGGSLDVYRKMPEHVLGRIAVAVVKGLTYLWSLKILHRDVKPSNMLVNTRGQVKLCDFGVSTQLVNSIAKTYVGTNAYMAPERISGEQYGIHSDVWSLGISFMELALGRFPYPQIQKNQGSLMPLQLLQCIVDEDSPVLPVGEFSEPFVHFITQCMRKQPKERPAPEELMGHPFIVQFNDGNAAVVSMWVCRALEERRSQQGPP
UniProt O95819: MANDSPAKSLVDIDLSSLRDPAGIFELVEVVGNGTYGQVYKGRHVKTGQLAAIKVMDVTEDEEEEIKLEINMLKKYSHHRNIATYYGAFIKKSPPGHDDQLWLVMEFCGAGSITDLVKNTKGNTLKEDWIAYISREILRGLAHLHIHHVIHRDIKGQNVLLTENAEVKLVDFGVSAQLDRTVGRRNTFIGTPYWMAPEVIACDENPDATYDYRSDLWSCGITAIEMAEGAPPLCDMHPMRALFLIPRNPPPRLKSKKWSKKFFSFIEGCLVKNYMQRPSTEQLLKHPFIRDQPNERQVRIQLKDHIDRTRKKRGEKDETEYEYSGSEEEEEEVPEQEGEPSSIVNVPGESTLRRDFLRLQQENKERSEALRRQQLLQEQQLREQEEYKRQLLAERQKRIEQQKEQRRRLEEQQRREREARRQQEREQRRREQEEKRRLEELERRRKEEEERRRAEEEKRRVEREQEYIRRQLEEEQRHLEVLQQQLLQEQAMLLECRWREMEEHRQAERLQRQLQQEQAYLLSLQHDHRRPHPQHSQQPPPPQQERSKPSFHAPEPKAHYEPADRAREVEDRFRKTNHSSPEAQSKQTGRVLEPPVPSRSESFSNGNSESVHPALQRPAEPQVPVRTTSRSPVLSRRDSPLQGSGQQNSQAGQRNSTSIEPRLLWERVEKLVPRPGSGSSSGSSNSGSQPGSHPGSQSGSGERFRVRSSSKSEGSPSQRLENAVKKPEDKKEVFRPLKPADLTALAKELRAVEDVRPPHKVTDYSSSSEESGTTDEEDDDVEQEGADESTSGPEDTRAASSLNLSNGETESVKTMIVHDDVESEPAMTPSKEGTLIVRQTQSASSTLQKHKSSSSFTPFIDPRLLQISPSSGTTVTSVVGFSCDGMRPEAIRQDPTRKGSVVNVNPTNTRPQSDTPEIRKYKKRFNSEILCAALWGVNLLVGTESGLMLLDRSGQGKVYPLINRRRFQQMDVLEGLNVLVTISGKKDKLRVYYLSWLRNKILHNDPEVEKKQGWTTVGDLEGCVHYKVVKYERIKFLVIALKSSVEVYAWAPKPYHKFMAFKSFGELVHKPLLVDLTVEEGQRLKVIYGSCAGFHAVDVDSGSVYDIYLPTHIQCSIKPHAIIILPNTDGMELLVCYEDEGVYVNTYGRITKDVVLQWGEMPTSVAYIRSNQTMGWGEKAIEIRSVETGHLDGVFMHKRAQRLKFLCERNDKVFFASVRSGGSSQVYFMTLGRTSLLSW
UniProt Q9UPY8, whole entry, looked up: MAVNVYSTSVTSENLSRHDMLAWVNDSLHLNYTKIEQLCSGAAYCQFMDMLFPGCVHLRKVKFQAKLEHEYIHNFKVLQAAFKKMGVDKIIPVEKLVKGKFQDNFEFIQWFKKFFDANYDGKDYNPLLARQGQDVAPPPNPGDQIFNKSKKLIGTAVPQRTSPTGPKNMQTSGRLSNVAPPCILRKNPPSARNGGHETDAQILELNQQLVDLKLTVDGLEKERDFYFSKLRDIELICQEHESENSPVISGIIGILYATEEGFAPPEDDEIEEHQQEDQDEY

Tests used:
Assay in all cases: log2 fold change, soluble protein after heating vs DMSO (PISA); higher = thermal stabilisation; K562 cells, 10 uM, 30 min; active = over 0.2 and 3.5 SD of the protein, either way, in both replicates (recomputed)
[1] = compound: NC(=O)c1cnc(N[C@@H]2CCCC[C@@H]2N)nc1Nc1cccc(-n2nccn2)c1
Outline: (§1)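 K562 cells (2×10^6 cells/mL) were treated with 10 μM compound for 30 min, and aliquots were heated for 3 min over 48°C-58°C. Pooled aliquots were extracted in PBS with 0.5% NP-40 at 4°C, and the supernatant after 21,000xg for 90 min was measured by TMTpro 16plex LC-MS/MS with channel sums equalised. Reported thermal stability, relative to control samples and from duplicates, is a log2 fold change.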

[2] = compound: NC1(c2ccc(-c3nc4ccn5c(=O)[nH]nc5c4cc3-c3ccccc3)cc2)CCC1
Outline: as §1

[3] = compound: NCC(=O)Nc1ccc(-n2nc(C(F)(F)F)cc2-c2ccc3c(ccc4ccccc43)c2)cc1
Outline: as §1

[4] = compound: O=C(CCCCCCC(=O)Nc1ccccc1)NO [vorinostat]
Outline: as §1

[5] = compound: O=C(O)c1ccc2c(c1)nc(Nc1cccc(Cl)c1)c1ccncc12 [silmitasertib]
Outline: as §1

[6] = compound: O=C1NC(=O)C(c2cnc3ccccn23)=C1c1cn2c3c(cc(F)cc13)CN(C(=O)N1CCCCC1)CC2
Outline: as §1

[7] = compound: NC(=O)Nc1cc(-c2cccc(F)c2)sc1C(=O)N[C@H]1CCCNC1
Outline: as §1

[8] = compound: Nc1ccccc1NC(=O)c1ccc(CNC(=O)OCc2cccnc2)cc1 [entinostat]
Outline: as §1

[9] = compound: O=C(CCCCCCNC(=O)c1cnc(N(c2ccccc2)c2ccccc2Cl)nc1)NO [citarinostat]
Outline: as §1

[10] = compound: c1cc(OCCN2CCCCC2)cc(-c2n[nH]c3ccc(-c4nnc[nH]4)cc23)c1
Outline: as §1

Measured: log2 fold change

MAD1L1 (UniProt Q9Y6D9)
inactive: [1] -0.073 | [2] 0.025 | [3] -0.087 | [4] 0.187 | [5] -0.127 | [6] -0.233

LSR (UniProt M0QZL9)
inactive: [7] -0.508 | [3] -0.095 | [8] -0.406 | [6] -0.074

LSG1 (UniProt Q9H089)
inactive: [1] 0.056 | [2] 0.064 | [3] 0.006 | [9] -0.105 | [5] 0.129 | [6] 0.308 | [10] -0.094

LRRC8E (UniProt Q6NSJ5)
inactive: [7] -0.001 | [2] -0.227 | [3] 0.067 | [8] -0.391 | [4] 0.054 | [5] -0.078 | [6] -0.044

LRRC8B (UniProt Q6P9F7)
inactive: [7] 0.014 | [2] 0.171 | [8] -0.35 | [5] -0.08 | [6] 0.075

MAPKAP1 (UniProt Q9BPZ7)
inactive: [4] 0.212 | [6] 0.129

LRRCC1 (UniProt Q9C099)
inactive: [1] -0.041

MARCHF3 (UniProt Q86UD3)
inactive: [7] 0.169 | [8] -0.038 | [9] -0.133 | [6] -0.014 | [10] -0.26

MAGEA8 (UniProt P43361)
inactive: [1] -0.135 | [3] 0.034 | [4] -0.063 | [9] 0.012 | [10] -0.008

LSR isoform 3 (UniProt Q86X29)
inactive: [7] -0.531 | [2] -0.327 | [8] -0.134 | [5] 0.062

MAML1 (UniProt Q92585)
inactive: [7] 0.08 | [3] 0.088 | [8] -0.104 | [6] 0.025

LRRFIP1 isoform 4 (UniProt Q32MZ4)
inactive: [1] 0.04 | [4] -0.062 | [6] -0.019

MANSC1 (UniProt Q9H8J5)
inactive: [1] 0.152

Six consecutive entries from above:
LRRCC1 (UniProt Q9C099)
inactive: [1] -0.041

MARCHF3 (UniProt Q86UD3)
inactive: [7] 0.169 | [8] -0.038 | [9] -0.133 | [6] -0.014 | [10] -0.26

MAGEA8 (UniProt P43361)
inactive: [1] -0.135 | [3] 0.034 | [4] -0.063 | [9] 0.012 | [10] -0.008

LSR isoform 3 (UniProt Q86X29)
inactive: [7] -0.531 | [2] -0.327 | [8] -0.134 | [5] 0.062

MAML1 (UniProt Q92585)
inactive: [7] 0.08 | [3] 0.088 | [8] -0.104 | [6] 0.025

LRRFIP1 isoform 4 (UniProt Q32MZ4)
inactive: [1] 0.04 | [4] -0.062 | [6] -0.019

Next part

MAP7D3 (UniProt Q8IWC1)
inactive: [7] -0.144 | [8] -0.154 | [4] 0.05 | [9] 0.019 | [6] 0.211 | [10] -0.033

MAGEB10 (UniProt Q96LZ2)
inactive: [1] -0.047 | [3] -0.042 | [9] 0.107 | [10] -0.004

LSM11 (UniProt P83369)
inactive: [4] -0.053

MAPK11 (UniProt Q15759)
inactive: [4] 0.033

LYPLA1, A0A087X1K9
inactive: [2] -0.312 | [5] 0.085

MAP2K5 (UniProt Q13163)
inactive: [1] -0.025

MAGEA1 (UniProt P43355)
inactive: [2] -0.05 | [4] 0.074 | [5] 0.114 | [6] 0.046

MAP4K2 (UniProt Q12851)
active: [7] 0.827
inactive: [8] 0.145 | [9] 0.116 | [10] -0.22

MAP4K4 isoform 6 (UniProt O95819)
inactive: [7] 0.332 | [2] 0.009 | [3] 0.228 | [8] 0.237 | [9] 0.114 | [5] -0.202 | [10] 0.143

LYST (UniProt Q99698)
inactive: [2] 0.221 | [3] -0.126 | [4] -0.288 | [5] 0.245 | [6] -0.239

MAPRE3 isoform 2 (UniProt Q9UPY8)
inactive: [1] -0.033

LYRM1 (UniProt O43325)
inactive: [7] -0.036 | [2] -0.035 | [3] -0.075 | [8] -0.029 | [4] -0.101 | [9] 0.227 | [5] 0.062 | [6] -0.041 | [10] 0.041

LTBP1 isoform 4 (UniProt Q14766)
inactive: [1] 0.016 | [3] 0.001 | [4] 0.066 | [6] 0.113
